Measured values: PMC1764644
Results are given in words; binding and its absence hold for the method and conditions named. Some binding calls cover weakened binding; strength is not graded here. Blank lines part the entries; values can stand above or below the substance they belong to.

Chains of the proteins cited; added tags and fusions are not shown. Lines headed by an entry give the natural chain unless they say otherwise; changes in a name come on top. Residues count along the entry.
UniProt P04003: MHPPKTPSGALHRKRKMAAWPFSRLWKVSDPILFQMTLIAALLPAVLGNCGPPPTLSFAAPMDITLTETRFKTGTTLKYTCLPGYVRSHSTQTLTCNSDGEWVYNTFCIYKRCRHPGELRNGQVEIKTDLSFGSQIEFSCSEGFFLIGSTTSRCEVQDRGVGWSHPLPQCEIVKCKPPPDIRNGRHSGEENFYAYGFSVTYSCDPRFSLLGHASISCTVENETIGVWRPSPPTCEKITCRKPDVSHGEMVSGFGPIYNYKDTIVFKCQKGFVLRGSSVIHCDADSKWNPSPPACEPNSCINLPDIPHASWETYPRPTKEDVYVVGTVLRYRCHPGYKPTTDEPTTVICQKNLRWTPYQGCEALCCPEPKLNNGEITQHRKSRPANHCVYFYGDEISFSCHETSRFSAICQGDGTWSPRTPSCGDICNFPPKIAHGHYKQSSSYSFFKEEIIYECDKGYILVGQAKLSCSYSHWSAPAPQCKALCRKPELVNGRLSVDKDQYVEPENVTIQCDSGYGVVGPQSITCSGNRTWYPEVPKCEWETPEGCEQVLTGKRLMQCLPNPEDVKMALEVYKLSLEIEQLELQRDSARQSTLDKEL
UniProt P25445, residues 26-173: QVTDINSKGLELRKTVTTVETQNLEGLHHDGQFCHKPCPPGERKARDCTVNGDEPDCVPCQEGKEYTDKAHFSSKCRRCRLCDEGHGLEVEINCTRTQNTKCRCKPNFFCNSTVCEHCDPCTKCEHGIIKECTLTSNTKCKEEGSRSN
UniProt P25942, residues 21-193: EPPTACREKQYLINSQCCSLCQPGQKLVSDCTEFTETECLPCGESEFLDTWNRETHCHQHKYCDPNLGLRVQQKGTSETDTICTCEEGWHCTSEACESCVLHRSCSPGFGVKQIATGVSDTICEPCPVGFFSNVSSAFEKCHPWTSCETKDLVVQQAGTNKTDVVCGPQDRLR
UniProt P29965, residues 113-261: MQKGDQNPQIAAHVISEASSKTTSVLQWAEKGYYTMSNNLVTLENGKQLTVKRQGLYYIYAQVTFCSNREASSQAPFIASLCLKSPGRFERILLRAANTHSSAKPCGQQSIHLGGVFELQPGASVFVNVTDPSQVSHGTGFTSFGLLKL
UniProt P48023, residues 130-281: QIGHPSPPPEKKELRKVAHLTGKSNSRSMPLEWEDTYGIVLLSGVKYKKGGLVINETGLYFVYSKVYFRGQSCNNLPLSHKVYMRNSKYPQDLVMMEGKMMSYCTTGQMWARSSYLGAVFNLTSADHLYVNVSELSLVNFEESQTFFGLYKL

How the values were obtained:
[1] = target: C4b binding protein (C4BP), purified native (UniProt P04003); assay: SPR; Biacore 3000, CM5 chip; C4BP (20 µg/ml) immobilised at pH 4.2, 5.0 and 5.6; sCD154 0.31 to 10 µg/ml at 2 µl/min for 120 minutes, 60 minutes dissociation, or sCD40 flowed; 25°C, HBS-EP; both purified
[2] = target: C4b binding protein (C4BP), purified native (UniProt P04003); assay: SEC; C4BP and sCD154 (5 ug:1 ug) incubated at 37°C for 1 hour, Sephacryl-300, 0.1 M NaPO4 pH 7.4, 0.15 M NaCl; 100 µl fractions assayed for CD154 by ELISA; both purified
CD95 (Fas) = CD95 (Fas) (UniProt P25445); assay: SPR; data not shown; CD95 or CD178 immobilised, C4BP flowed under the same conditions; soluble CD178 on immobilised CD95 with C4BP; both purified
[3] = target: human CD40 murine-IgG fusion protein (human) (UniProt P25942); assay: SPR; Biacore 3000, CM5 chip; human CD40 murine-IgG fusion protein immobilised (10 µg/ml); sCD154 10 µg/ml, C4BP 40 µg/ml or a mixture of both flowed in various orders; 25°C, HBS-EP (10 mM HEPES pH 7.4, 150 mM NaCl, 0.005% surfactant P20); both purified
[4] = target: human CD40 murine-IgG fusion protein (human) (UniProt P25942); assay: SPR; Biacore 3000, CM5 chip; CD40 fusion protein immobilised at 2000, 500 and 100 ru on three channels; C4BP titrated from 40 µg/ml to 400 µg/ml; sCD154 flowed before and after the titration; 25°C, HBS-EP; both purified

- binding [1]: no binding
Substance: soluble CD40 (sCD40) (from UniProt P25942 21-193) (receptor)

- binding [2]: binds
- binding [1]: binds
Substance: recombinant soluble CD40 ligand (sCD154) (from UniProt P29965 113-261)

- binding (CD95 (Fas)): binds
Substance: CD178 (Fas Ligand) (from UniProt P48023 130-281)

- binding [3]: no binding (tested: 40 µg/ml)
- binding [4]: no binding (tested: 400 µg/ml)
Substance: C4b binding protein (C4BP), purified native (from UniProt P04003 49-597; P20851 18-252) (complex)
